Laboratory results published in patent US6495584B1, “Use of 3-(1H-imidazol-4-ylmethyl)-indan-5-ol in the manufacture of a medicament for intraspinal, intrathecal or epidural administration” (Orion Corporation, priority 1998, dated 2002).

System: rat
Test: Tail-flick analgesia test
Type: in vivo
Experimental: There were 8 rats in each group tested.
Tail-flick analgesia was tested by a tail-flick analgesy meter (Ugo Basile, Italy). The analgesia testing was done no earlier than four days after the catheterization. The rats were always habituated to the immobilization chambers that were used in the analgesia measurements. The tail of the rat was outside the chamber and it was placed on the heating spot of the apparatus. Thus, the hot infrared beam would hit the tail. When the rat reacted and moved the tail away from the beam, the analgesy meter automatically measured the latency of the tail-withdrawal. The tail-flick measurement was always repeated three times, one after another, to diminish the effect of a possible unspecific reaction. […] The maximal latency (cut-off time) was set to 5 seconds in order to prevent burns of the tail. The predrug tail-flick latencies were first measured, and then the rats were administered 10 μl of the drug solution by a Hamilton syringe. Immediately thereafter the catheter was washed with 10 μl of sterile saline, and the tip was sealed by a lighter. […]
The tail-flick analgesia data were represented as MPE% values (maximum possible effect %). The tail-flick latencies (mean of three measurements) were calculated as MPE% values as follows: (postdrug latency−predrug latency)/(cut-off time−predrug latency)×100%. […]

Compound: Oc1ccc2c(c1)C(Cc1c[nH]cn1)CC2 (centres unmarked) [Compound A, 3-(1H-imidazol-4-ylmethyl)-indan-5-ol]
- Dose needed for the analgesic effect, intravenous versus intrathecal (iv dose relative to it dose): at least 14 times
- Dose needed for the analgesic effect, subcutaneous versus intrathecal (sc dose relative to it dose): at least 142 times
